Measurements reported in PubChem BioAssay AID652243 (Drosophila RNAi Screening Center, 2013).
The deposit covers about 24,000 reagents; shown is a random part of those that have a named target and a result. Over the whole deposit, 246 (1%) were called active. 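Plates not normalised; calls are printed but the firefly/Renilla ratio behind them is not deposited; fold cut for lowering reported inconsistently.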 Raw values are not corrected between plates. Reagents against one gene are numbered here. A plus sign joins genes that one reagent is predicted to hit. Reagent sequences are not shown. Not given: the amount of reagent.

Purpose: 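Knock-downs that decrease or increase androgen receptor reporter signal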 (primary screen)
Cell system: Drosophila S2R+ cells
Reagents: long dsRNA against Drosophila genes
Time to read-out: 72 h (48 h, then 24 h hormone)
Treatment: synthetic androgen R1881 at 10 nM for 24 h
Detection: 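Firefly light from an androgen-responsive reporter and Renilla control light per well, raw and unnormalised, for each of two replicates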
Reading the numbers: firefly reporter light: higher = more light from androgen-responsive reporter; Renilla control light: higher = more constitutive control signal (cell number, transfection)
Rule for the call: 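Across duplicate plates, a knock-down whose log firefly/Renilla ratio shifted a set fold down or up from the GFP/LacZ control mean was a hit; the downward cut appears as both 1.5 and 3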
Calls: active = hit: reporter lowered or raised; inactive = no hit

target,dsRNA no.,"firefly reporter light, replicate 1","firefly reporter light, replicate 2","Renilla control light, replicate 1","Renilla control light, replicate 2",Call
Lgr3 (Leucine-rich repeat-containing G protein-coupled receptor 3),1,1.29e5,1.91e5,1.90e6,1.92e6,inactive
Lgr3 (Leucine-rich repeat-containing G protein-coupled receptor 3),2,1.41e5,1.37e5,1.84e6,1.21e6,inactive
CG5079,1,5.36e5,6.82e5,9.08e5,1.27e6,inactive
CG4267,1,1.78e5,1.62e5,3.59e5,3.51e5,inactive
CG4267,2,94021,1.09e5,8.77e5,1.06e6,inactive
CG4267,3,5.24e5,5.13e5,1.34e6,1.19e6,inactive
CG4267,4,3.58e5,4.38e5,1.02e6,1.19e6,inactive
Pkd2 (Polycystic kidney disease 2),1,1.88e5,1.92e5,8.00e5,9.80e5,inactive
Pkd2 (Polycystic kidney disease 2),2,3.40e5,3.40e5,6.17e5,8.55e5,inactive
Nmdmc (NAD-dependent methylenetetrahydrofolate dehydrogenase),1,39541,72707,4.53e5,5.01e5,inactive
Nmdmc (NAD-dependent methylenetetrahydrofolate dehydrogenase),2,2.96e5,3.17e5,6.90e5,6.05e5,inactive
Rab9D + Rab9Fa + Rab9E,1,3.02e5,2.93e5,2.66e6,2.92e6,inactive
tsh (teashirt),1,3.76e5,4.11e5,2.10e6,2.02e6,inactive
"PheRS-m (Phenylalanyl-tRNA synthetase, mitochondrial)",1,7.86e5,9.95e5,1.32e6,1.22e6,inactive
CG15529,1,1.42e5,2.02e5,1.82e6,2.67e6,inactive
LanB2 (Laminin B2),1,1.09e6,4.48e5,2.34e6,1.39e6,inactive
CG40439,1,1.11e6,7.40e5,1.58e6,1.35e6,inactive
CG40439,2,2.72e5,2.97e5,7.47e5,4.69e5,inactive
Jhbp2 (Juvenile hormone binding protein 2),1,80326,72037,1.96e6,2.05e6,inactive
Alk (Anaplastic lymphoma kinase),1,7.80e5,1.07e6,1.41e6,2.23e6,inactive
Alk (Anaplastic lymphoma kinase),2,8.95e5,8.89e5,1.35e6,1.45e6,inactive
Alk (Anaplastic lymphoma kinase),3,,,,,inactive
Alk (Anaplastic lymphoma kinase),4,,,,,inactive
CG8516,1,1.90e5,1.94e5,3.71e6,3.29e6,inactive
"Arpc3B (Actin-related protein 2/3 complex, subunit 3B)",1,4.42e5,3.56e5,2.90e6,1.60e6,inactive
"Arpc3B (Actin-related protein 2/3 complex, subunit 3B)",2,1.78e5,4.62e5,5.65e5,1.26e6,inactive
Pal1 + Pdrg1,1,4.27e5,2.91e5,1.82e6,2.18e6,inactive
CG34276,1,2.66e5,3.58e5,3.38e6,4.12e6,inactive
CG33978,1,9.88e5,8.97e5,1.64e6,1.88e6,inactive
CG5892,1,4.27e5,2.57e5,3.23e6,3.45e6,inactive
CG5892,2,7.42e5,7.57e5,7.12e5,8.49e5,inactive
Osi16 (Osiris 16),1,86795,64137,1.27e6,2.42e6,inactive
Osi16 (Osiris 16),2,8.87e5,8.58e5,1.73e6,1.63e6,inactive
CG31810 + CG31809,1,9.69e5,7.80e5,7.01e5,9.30e5,inactive
CG15312,1,56050,71466,5.86e5,7.04e5,inactive
CG15312,2,4.55e5,3.13e5,8.32e5,7.22e5,inactive
eIF4G2 (eukaryotic translation initiation factor 4G2),1,1.16e5,1.48e5,1.11e6,1.29e6,inactive
eIF4G2 (eukaryotic translation initiation factor 4G2),2,4.27e5,4.46e5,5.10e5,6.17e5,inactive
Ciz1 (Ciz1 zinc finger protein),1,2.07e5,2.35e5,1.21e6,8.84e5,inactive
Ciz1 (Ciz1 zinc finger protein),2,7.72e5,7.80e5,8.25e5,8.94e5,inactive
dpr13 (defective proboscis extension response 13),1,1.11e5,1.58e5,1.45e6,1.45e6,inactive
dpr13 (defective proboscis extension response 13),2,74940,78985,1.50e6,1.50e6,inactive
dpr13 (defective proboscis extension response 13),3,2.98e5,3.30e5,2.61e5,3.44e5,inactive
Dlip2 (Dorsal interacting protein 2),1,89044,78768,1.75e6,1.75e6,inactive
lva (lava lamp),1,1.33e5,82827,1.36e6,6.07e5,inactive
lva (lava lamp),2,1.87e5,2.25e5,4.99e5,5.74e5,inactive
Polr1H (RNA polymerase I subunit H),1,48626,72759,3.39e5,3.47e5,inactive
Polr1H (RNA polymerase I subunit H),2,5.25e5,4.94e5,1.45e6,1.42e6,inactive
vito (viriato),1,5.42e5,4.44e5,8.63e5,7.81e5,inactive
vito (viriato),2,7.47e5,5.80e5,7.79e5,6.49e5,inactive
boly (borrelly),1,8.80e5,6.47e5,2.89e6,1.87e6,inactive
CG8065,1,2.00e5,1.52e5,1.63e6,1.43e6,inactive
CG10481,1,1.81e5,1.84e5,1.41e6,1.63e6,inactive
CG14949,1,1.54e5,1.27e5,2.87e6,2.26e6,inactive
SelG (Selenoprotein G),1,1.05e5,97524,1.15e6,9.46e5,inactive
SelG (Selenoprotein G),2,2.85e5,3.01e5,1.10e6,5.87e5,inactive
Nup98-96 (Nucleoporin 98-96kD),1,83399,74165,1.10e6,1.14e6,inactive
Nup98-96 (Nucleoporin 98-96kD),2,1.01e5,1.61e5,2.32e6,2.11e6,inactive
Uro (Urate oxidase),1,2.17e5,2.04e5,1.77e6,1.56e6,inactive
CG17292,1,6.34e5,5.77e5,2.23e6,1.89e6,inactive
CG17292,2,1.97e5,1.81e5,6.01e5,8.99e5,inactive
OS9 + Hf,1,9.48e5,1.07e6,1.19e6,1.26e6,inactive
CG7557,1,4.51e5,2.36e5,8.46e5,8.14e5,inactive
CG7557,2,3.93e5,1.06e6,1.33e6,1.93e6,inactive
CG30324,1,8.60e5,7.72e5,1.28e6,1.35e6,inactive
CG30324,2,2.46e5,2.01e5,4.68e5,3.15e5,inactive
CG1503,1,1.44e5,71577,4.29e5,4.09e5,inactive
hth (homothorax),1,1.06e5,1.32e5,1.39e6,1.64e6,inactive
hth (homothorax),2,7.27e5,3.88e5,5.50e5,6.05e5,inactive
CG34185,1,7.98e5,1.01e6,1.80e6,2.31e6,inactive
Set1 (SET domain containing 1),1,6.99e5,6.69e5,1.37e6,1.50e6,inactive
l(3)72Dr (lethal (3) 72Dr),1,2.09e5,1.61e5,1.95e6,1.68e6,inactive
Cpr73D (Cuticular protein 73D),1,16904,21760,2.55e5,2.23e5,inactive
Cpr73D (Cuticular protein 73D),2,2.93e5,2.65e5,5.98e5,7.27e5,inactive
